The test system of this experiment is B6C3F1 mice, B16 melanoma ip, median survival T/C. Briefly: NCI In Vivo Anticancer Drug Screen. Data for tumor model B16 Melanoma (intraperitoneal) in B6C3F1 mice. As to conditions: T/C endpoint: median survival time, higher T/C = longer survival. The procedure, abridged:
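Antitumor effect was judged in mice with transplanted tumors by dividing the treated group's survival measure by that of vehicle controls.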

[1] abbreviates: dose: 25.0 mg/kg/injection, schedule: Q01DX009 (ip), vehicle: saline with Tween-80.
The mark [2] stands for this setting: dose: 50.0 mg/kg/injection, schedule: Q01DX009 (ip), vehicle: saline with Tween-80.
Setting [3] is: dose: 100.0 mg/kg/injection, schedule: Q01DX009 (ip), vehicle: saline with Tween-80.
The mark [4] stands for this setting: dose: 200.0 mg/kg/injection, schedule: Q01DX009 (ip), vehicle: saline with Tween-80.
The mark [5] stands for this setting: dose: 100.0 mg/kg/injection, schedule: Q01DX009 (ip), vehicle: suspension in saline.
The mark [6] stands for this setting: dose: 400.0 mg/kg/injection, schedule: Q01DX009 (ip), vehicle: saline.
[7] abbreviates: dose: 50.0 mg/kg/injection, schedule: Q01DX009 (ip), vehicle: Klucel (hydroxypropylcellulose) (HPC).
Setting [8] is: dose: 200.0 mg/kg/injection, schedule: Q01DX009 (ip), vehicle: suspension in saline.
The mark [9] stands for this setting: dose: 400.0 mg/kg/injection, schedule: Q01DX009 (ip), vehicle: suspension in saline.
Where [10] appears, read: dose: 100.0 mg/kg/injection, schedule: Q01DX001 (ip), vehicle: water.
The mark [11] stands for this setting: dose: 100.0 mg/kg/injection, schedule: Q01DX009 (ip), vehicle: Klucel (hydroxypropylcellulose) (HPC).

The list does not hold the whole screen: it is rich in T/C values a quarter to a half above the control, in often repeated tests (any T/C) and in doses without a T/C. Other doses and runs of a compound stand elsewhere. T/C is the treated group as % of the vehicle group. Some doses have a count of surviving animals in place of a T/C: the source files T/C as zero there, which appears to mark a toxic dose or a test without result, not a measured value. Some doses without a T/C left all or most animals alive at the check, yet need not have been tolerated: the source hardly ever lists a survival T/C far under the control, and the zero likely stands for such cases as well. Survivors were counted at the toxicity check, usually on the fifth day, unless a day is given; later deaths do not show. Schedules are NCI's codes, read here as Q, the interval in days (D) or hours (H), X, the number of doses. Some doses were run more than once; the results are listed from low to high. For survival time, the PubChem record calls one and a half times the control and up active, and a quarter to a half above the control has no call in these data; cut-offs in other NCI protocols can differ. Some T/C values are followed by the survivors on the day toxicity was checked, most often the fifth; without a count, all were alive then.

Turning to `CC(C)NC(=O)OCc1c(COC(=O)NC(C)C)c(-c2ccc(Cl)c(Cl)c2)n2c1C[C@@H](O)C2`, the T/C runs as follows: (dose: 2.5 mg/kg/injection, schedule: Q01DX009 (ip), vehicle: Klucel (hydroxypropylcellulose) (HPC)) 129 % of control; (dose: 5.0 mg/kg/injection, schedule: Q01DX009 (ip), vehicle: Klucel (hydroxypropylcellulose) (HPC)) 129 % of control [9 of 10 alive]; (dose: 10.0 mg/kg/injection, schedule: Q01DX009 (ip), vehicle: Klucel (hydroxypropylcellulose) (HPC)) 143 % of control. For the same compound, where the note is “dose: 80.0 mg/kg/injection, schedule: Q01DX009 (ip), vehicle: water”, the survivor count is listed as 10 of 10.

Consider `C=C1C(O)C2(O)OCC34C(CC5C(C)=CC(=O)C(O)C5(C)C23)OC(=O)C(OC(=O)C(C)(O)CC)C14` (configuration not stated), for which the T/C was 126 % of control (dose: 0.5 mg/kg/injection, schedule: Q01DX009 (ip), vehicle: saline + alcohol); 128 % of control (dose: 1.0 mg/kg/injection, schedule: Q01DX009 (ip), vehicle: saline + alcohol); 128 [9 of 10 alive] and 149 % of control (dose: 2.0 mg/kg/injection, schedule: Q01DX009 (ip), vehicle: saline + alcohol). In addition, for the setting “dose: 4.0 mg/kg/injection, schedule: Q01DX009 (ip), vehicle: saline + alcohol”, the survivor count was 0 of 10.

Regarding `C1=CCOCOC1`, the T/C (dose: 12.5 mg/kg/injection, schedule: Q01DX009 (ip), vehicle: saline with Tween-80) is on record as 99, 100, 104, 110 % of control; the T/C under setting [1] is recorded as 95, 103, 104, 127 % of control; the T/C under setting [2] is given as 97, 99, 100, 112 % of control; the T/C under setting [3] is 100 [9 of 10 alive], 103, 104, 114 % of control; the T/C under setting [4] is 93 [9 of 10 alive], 96 [7 of 10 alive], 110 % of control. Also, the survivor count runs as follows: under setting [4], 6 of 10; (dose: 400.0 mg/kg/injection, schedule: Q01DX009 (ip), vehicle: saline with Tween-80) 0 of 10 and 6 of 10.

`CCc1ncnc2cc(OCC3CO3)c(OC)cc12` (configuration not stated): the T/C (dose: 12.5 mg/kg/injection, schedule: Q01DX009 (ip), vehicle: suspension in saline) is 131 % of control and the T/C (dose: 25.0 mg/kg/injection, schedule: Q01DX009 (ip), vehicle: suspension in saline) was 140 % of control. In addition, the survivor count under setting [5] is given as 9 of 10.

Regarding `COc1cc(C)c(C2NC(=O)c3ccccc3N2)cc1C` (configuration not stated), the T/C was 132 % of control (dose: 200.0 mg/kg/injection, schedule: Q01DX009 (ip), vehicle: Klucel (hydroxypropylcellulose) (HPC)); 140 % of control (dose: 400.0 mg/kg/injection, schedule: Q01DX009 (ip), vehicle: Klucel (hydroxypropylcellulose) (HPC)); 144 % of control (dose: 800.0 mg/kg/injection, schedule: Q01DX009 (ip), vehicle: Klucel (hydroxypropylcellulose) (HPC)).

Regarding `O=Cc1ccc([N+](=O)[O-])s1`, under setting [3], the survivor count is 0 of 10.

Turning to `CCCCCCCCCCCCNCCCc1ccccc1`, the survivor count under setting [2] is 0 of 7.

`CN1C2CCC1C(Br)C(=O)C2` (configuration not stated): the survivor count under setting [6] is given as 3 of 10.

Turning to `COc1ccc(-c2cc(C(=O)Nc3cc(C(F)(F)F)cc(C(F)(F)F)c3)c3ccccc3n2)cc1`, the survivor count runs as follows: (dose: 50.0 mg/kg/injection, schedule: Q01DX009 (ip), vehicle: DMSO) 6 of 6; (dose: 100.0 mg/kg/injection, schedule: Q01DX009 (ip), vehicle: DMSO) 5 of 6; (dose: 200.0 mg/kg/injection, schedule: Q01DX009 (ip), vehicle: DMSO) 6 of 6; (dose: 400.0 mg/kg/injection, schedule: Q01DX009 (ip), vehicle: DMSO) 5 of 6; (dose: 800.0 mg/kg/injection, schedule: Q01DX009 (ip), vehicle: DMSO) 3 of 5.

As to `CC1(C)N=C(N)N=C(N)N1c1cccc(CCCCc2cccc(N)c2)c1`, the survivor count under setting [7] was 0 of 10.

`CCSCCNC(=O)[C@@]1(O)[C@H](O)[C@]2(CC)C=CCN3CC[C@@]4(c5cc([C@@]6(OC(C)=O)C[C@H]7C=C(CC)CN(CCc8c6[nH]c6ccccc86)C7)c(OC)cc5N(C)[C@@H]14)[C@@H]32`: the T/C (dose: 0.13 mg/kg/injection, schedule: Q01DX009 (ip), vehicle: water) is 132 % of control; the T/C (dose: 0.25 mg/kg/injection, schedule: Q01DX009 (ip), vehicle: water) is 129 % of control [9 of 10 alive]; the T/C (dose: 1.0 mg/kg/injection, schedule: Q01DX009 (ip), vehicle: water) was 138 % of control. The survivor count (dose: 2.0 mg/kg/injection, schedule: Q01DX009 (ip), vehicle: water) is recorded as 10 of 10.

Regarding `C/C=C(\C)C(=O)N[C@@H](c1ccccc1)[C@@H](O)C(=O)OC1C[C@@]2(O)[C@@H](OC(=O)c3ccccc3)[C@@H]3[C@]4(OC(C)=O)CO[C@@H]4C[C@H](O)[C@@]3(C)C(=O)[C@H](OC(C)=O)C(=C1C)C2(C)C` (some centres not stated), the T/C by setting is: (dose: 2.0 mg/kg/injection, schedule: Q01DX009 (ip), vehicle: saline + Tween-80 + alcohol) 125 % of control; (dose: 8.0 mg/kg/injection, schedule: Q01DX009 (ip), vehicle: saline + Tween-80 + alcohol) 145 % of control.

As to `S=c1sc2ccccc2n1CN1CCOCC1`, the T/C under setting [2] was 143 % of control.

Regarding `O=C1OC(=O)[C@H]2[C@@H]1[C@H]1C=C[C@@H]2OC1=O`, under setting [6], the survivor count was 9 of 10.

For the compound `CCN(CC)CCNc1ccc(C)c2sc3ccc(O)cc3c(=O)c12`, the T/C under setting [1] is 137 % of control. In addition, the survivor count under setting [4] is 9 of 10.

For `NC(=S)N/N=C/c1ccc(O)cn1`, the survivor count was 10 of 10 under setting [8] and 10 of 10 under setting [9].

`COC(=O)C(F)C(Br)C(=O)OC` (configuration not stated): under setting [3], the survivor count is 4 of 10.

For the compound `COc1cccc2c1C(=O)c1c(O)c3c(c(O)c1C2=O)C[C@@](O)(c1csc(N)n1)C[C@@H]3OC1CC(N)C(O)C(C)O1` (some centres not stated), the T/C by setting is: (dose: 25.0 mg/kg/injection, schedule: Q01DX001 (ip), vehicle: water) 144 % of control; (dose: 50.0 mg/kg/injection, schedule: Q01DX001 (ip), vehicle: water) 129 and 146 % of control; under setting [10], 145 % of control. In addition, the survivor count under setting [10] is recorded as 0 of 10; the survivor count (dose: 200.0 mg/kg/injection, schedule: Q01DX001 (ip), vehicle: water) is 0 of 10 and 2 of 10; the survivor count (dose: 400.0 mg/kg/injection, schedule: Q01DX001 (ip), vehicle: water) was 0 of 10.

As for `O=C(O)C(CSC(c1ccccc1)(c1ccccc1)c1ccccc1)N=Cc1cccs1` (configuration not stated), the T/C (dose: 50.0 mg/kg/injection, schedule: Q01DX009 (ip), vehicle: suspension in saline) is 127 % of control. Besides, the survivor count by setting is: under setting [5], 8 of 10; under setting [8], 6 of 10; under setting [9], 0 of 10.

As for `NC(CCCNc1cccc(O)c1)C(=O)O` (configuration not stated), under “dose: 150.0 mg/kg/injection, schedule: Q01DX009 (ip), vehicle: saline”, the survivor count is given as 10 of 10.

Consider `COc1ccc(Cl)[n+]([O-])n1`, for which the survivor count under setting [11] is reported as 3 of 10.

For `O=S1(=O)CS(=O)(=O)OCCO1`, the T/C (dose: 6.25 mg/kg/injection, schedule: Q01DX009 (ip), vehicle: Klucel (hydroxypropylcellulose) (HPC)) is 148 % of control. For the same compound, the survivor count under setting [7] was 6 of 8 and the survivor count under setting [11] is listed as 3 of 10.

For `O=C(O)C(O)C(O)C1[O][Sb][O]C1C(=O)O` (configuration not stated), the survivor count (dose: 100.0 mg/kg/injection, schedule: Q01DX009 (ip), vehicle: saline) is 2 of 10.

As to `CC12CCC3C(CCC4CC(OC(=O)Cc5ccc(N(CCCl)CCCl)cc5)CCC43C)C1CCC(=O)N2` (configuration not stated), the T/C (dose: 6.0 mg/kg/injection, schedule: Q01DX009 (ip), vehicle: saline with Tween-80) is 149 % of control. For the same compound, for the setting “dose: 24.0 mg/kg/injection, schedule: Q01DX009 (ip), vehicle: saline with Tween-80”, the survivor count is 10 of 10.

`O=c1[nH]cnc2c1ccn2C1OC(CO)C(O)C1O` (configuration not stated): under “dose: 24.0 mg/kg/injection, schedule: Q01DX009 (ip), vehicle: saline”, the survivor count is on record as 10 of 10.

For the origin of these results see PubChem BioAssay AID200 (DTP/NCI, 2004).
